Some of the results follow.

Amino acid sequences for entries named in this document (tags omitted).
UniProt Q0JBA9, entry or part of it: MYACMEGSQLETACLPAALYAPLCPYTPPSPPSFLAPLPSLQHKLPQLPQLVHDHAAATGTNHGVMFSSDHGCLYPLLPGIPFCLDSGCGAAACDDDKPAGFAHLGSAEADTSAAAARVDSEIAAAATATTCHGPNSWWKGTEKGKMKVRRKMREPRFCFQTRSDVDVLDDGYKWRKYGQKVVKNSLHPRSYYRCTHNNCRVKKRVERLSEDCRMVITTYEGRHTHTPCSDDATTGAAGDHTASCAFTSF

For the assay, the target named is OsWRKY34 (Oryza sativa, UniProt Q0JBA9 1-250). Nature of the assay: protein-binding microarray (RPBM); PBS, 2% BSA, 51.3 ng/ul salmon testes DNA, 50 uM zinc acetate, 200 nM TF, 25 C, 1 h; high values mean tight binding. The conditions noted are these: protein: recombinant; tags: N-terminal polyhistidine and DsRed monomer fusion (pET32a); label: CyDye5-dUTP incorporated in the synthesized complementary strand; 3' TTTTT single-stranded linker to array surface; dsDNA, one strand shown. The essentials:
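A custom Agilent array was converted to double-stranded form by primer extension with Cy5-dUTP and blocked with 2% BSA. Protein at 200 nM in PBS with 2% BSA, salmon testes DNA and 50 µM zinc acetate was applied for 1 h at 25 °C, followed by washing. The proteins were polyhistidine–DsRed N-terminal fusions of transcription factors, expressed in E. coli BL21-CodonPlus and Ni–NTA-purified. The binding signal is per-feature fluorescence intensity (arbitrary units) from an Axon 4000B scanner.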
For the sequence “TTTTCTTTCCTTTATTATTTTCTTTATCCTTTTTTTCTCCCGGAGTCACCTAGTGCAG”, the binding signal is 9250 fluorescence intensity (a.u.).
With “ACTGCTCCTTGGTTTTTTTTACTCGTCGAGTCATCTTCCCCGGAGTCACCTAGTGCAG” the figure was 11300 fluorescence intensity (a.u.); with “CCCGCCGCCGCTCCACCACCGCGGCGCCGCGCCTCCTCTCCGGAGTCACCTAGTGCAG”, 8880 fluorescence intensity (a.u.); with “TTGACATGTAAAGTGCATTTGTAAAACAATAGCTTACAATCGGAGTCACCTAGTGCAG”, 8730 fluorescence intensity (a.u.).
For “GACCGGCAATCTTAAGATTTTCAGCTACTCCTATACAACACGGAGTCACCTAGTGCAG” the value was 9760 fluorescence intensity (a.u.).
For “GTGTAATTGGTTTTTTTCCTACATTTAATACTCCATGCATCGGAGTCACCTAGTGCAG” the value was 8320 fluorescence intensity (a.u.); for “TTGTGTCGTTAAATTTTCTTTTTATCTTATATTATATTTGCGGAGTCACCTAGTGCAG”, 8630 fluorescence intensity (a.u.).
On to “GAATCTGACACACAATTGAGTTTTTTTGGTACTGAGAGGGCGGAGTCACCTAGTGCAG”, for which the binding signal was 8680 fluorescence intensity (a.u.).
For “GCGTCGATCGGCCGCTTTGGACGGCCCTGATTACGCCCATCGGAGTCACCTAGTGCAG” the value was 8340 fluorescence intensity (a.u.).
In the case of “GGTGGAAAGGGGAGGGGAAGAAGATGCTGACATGTGGGACCGGAGTCACCTAGTGCAG”, the binding signal was 8380 fluorescence intensity (a.u.).
With “CTTCTGGCCTTCTGCTGCTCCGATCTACTACTACTTATTACGGAGTCACCTAGTGCAG” the figure was 8140 fluorescence intensity (a.u.); with “GTAGCCCAACACGTCTGTCATACTGTACGGGTATAAATACCGGAGTCACCTAGTGCAG”, 8770 fluorescence intensity (a.u.).
For “AAGTCATATCACCTTGTTTTTTATGTTTAAATCACCATTCCGGAGTCACCTAGTGCAG” the value was 8270 fluorescence intensity (a.u.); for “TTTTTGCTAATTTTTCCTTATGTCTTTTTTTTTGCAAATACGGAGTCACCTAGTGCAG”, 8040 fluorescence intensity (a.u.).
With “CACGACACACACACACCAGCAACGGGGATTAGAAGTTGACCGGAGTCACCTAGTGCAG”, the binding signal is 10200 fluorescence intensity (a.u.).
With “ACACGAACTTTAACCACCTCTAGCTACTTCCTTTTTTTCTCGGAGTCACCTAGTGCAG” the figure was 11900 fluorescence intensity (a.u.); with “CCTTTCTTTCCTTTTCTTTACCTCAACACGCCGAGAACGTCGGAGTCACCTAGTGCAG”, 8480 fluorescence intensity (a.u.); with “GTGCTATTCGTATTACTTTATACCCGTGTAATCAATCACCCGGAGTCACCTAGTGCAG”, 12100 fluorescence intensity (a.u.).
With “CGATCTTGCCCTGGTTGGTTGGTGGTGGTGGTGGGTTTTGCGGAGTCACCTAGTGCAG” the figure was 37100 fluorescence intensity (a.u.).
With “ATGAGCTGCGCACCTACCCTCTCGTGACCACCGGCTTCAACGGAGTCACCTAGTGCAG” the figure was 8400 fluorescence intensity (a.u.); with “ACGTGCCCGTGTCACGCTCGCGCCGCGCCCCGCCACGCTCCGGAGTCACCTAGTGCAG”, 9720 fluorescence intensity (a.u.); with “TTTGTCCTTTCGATTGCAACATATAGAAGTTGAATTTAGTCGGAGTCACCTAGTGCAG”, 8400 fluorescence intensity (a.u.).
For “GGTTTTTTTTCTCTTTTGTACGCGTAGCAATTTTAGCTTTCGGAGTCACCTAGTGCAG”, the binding signal was 8830 fluorescence intensity (a.u.).
“TGTTAGTTAGATCAGGTTAATTATTAACATCACCCATTTCCGGAGTCACCTAGTGCAG”: the binding signal was 8400 fluorescence intensity (a.u.).
With “GGAGAGATGCCATGCCGCGCTATGTTGTTCAACTTCAAACCGGAGTCACCTAGTGCAG” the figure was 8400 fluorescence intensity (a.u.).
With “AAACGATAAAGGTTGTTTCCGTCCGTTTCCGTACCGTTTTCGGAGTCACCTAGTGCAG” the figure was 10400 fluorescence intensity (a.u.).
With “AGGTGGAGGTGGGGAGGATGCGGGAGAGGGAGGTGATGATCGGAGTCACCTAGTGCAG” the figure was 14000 fluorescence intensity (a.u.); with “AGAAGCGCATGTAGGGGATGCCCGGGTTGACCGCCTTGCTCGGAGTCACCTAGTGCAG”, 9170 fluorescence intensity (a.u.).
For the sequence “ATGGTGGTTCTAATTCTGTTGGTTGACTGCTCTCTGAAATCGGAGTCACCTAGTGCAG”, the binding signal was 13300 fluorescence intensity (a.u.).
Turning to “AAAGGTGGTGGTAGGGGATAGATCCGGGGCGGGCGGCATGCGGAGTCACCTAGTGCAG”, the binding signal was 23400 fluorescence intensity (a.u.).
With “GGTACATGTTCTTATATATTCTGGCGCATTTCGATTCGAGCGGAGTCACCTAGTGCAG” the figure was 13900 fluorescence intensity (a.u.); with “AATTAAACCCAAATCGATCCCTTTTATTTCCTATCTTGCACGGAGTCACCTAGTGCAG”, 10600 fluorescence intensity (a.u.); with “ATTTATGGTTTAGTTCCCAACTTTTTCTTCAAACTTTCAACGGAGTCACCTAGTGCAG”, 8550 fluorescence intensity (a.u.).
For “CTCGCAATACCACCTTAAGCCCTTGACAAGCTTTTAAAACCGGAGTCACCTAGTGCAG” the value was 10300 fluorescence intensity (a.u.); for “CATTCGTAGTGGTCAGTACTCTCCCGTGCACTCCTACTAGCGGAGTCACCTAGTGCAG”, 9070 fluorescence intensity (a.u.).
For “GATCACTGTCACAAGTTCGTTCAGCTGCATTTTTCAAAAACGGAGTCACCTAGTGCAG” the value was 9890 fluorescence intensity (a.u.); for “GCATGTATTGATGTTTGTTTGTTAAGAATGAAGTGAGAAACGGAGTCACCTAGTGCAG”, 9140 fluorescence intensity (a.u.); for “GAGAAATGAATGGACCCAATAGTACGGAGGGGAGGGGAGCCGGAGTCACCTAGTGCAG”, 8770 fluorescence intensity (a.u.).
As to “CACTCGCATGCGAACGACCGTGCTCTACCTCTTACGCTATCGGAGTCACCTAGTGCAG”, the binding signal was 10700 fluorescence intensity (a.u.).
With “GGTTTTGCGGTTGAGCGAAACGACCCAATGGGAATCAAGACGGAGTCACCTAGTGCAG” the figure was 60000 fluorescence intensity (a.u.); with “GGGAAGGAGGGAGTACATGATTAATTGAGTATTAAATGTTCGGAGTCACCTAGTGCAG”, 8230 fluorescence intensity (a.u.); with “CTCCCCTGTCCTCCCCGATTCCCAATCTCGCTCTCAAGTCCGGAGTCACCTAGTGCAG”, 8140 fluorescence intensity (a.u.).

Values taken from paper PMC7819943, “Rice protein-binding microarrays: a tool to detect cis-acting elements near promoter regions in rice”.
